The values are deposited in ChEMBL (CHEMBL3988442, “University of Dundee, Small-Polar-MMV Screening Library” (2021)).

The filed quantity is “Percent Effect” (%). The controls that fix the scale are not given in the record; negative values are as filed. Compounds were drawn at random from those tested, without regard to their results.

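Whole-cell assay for inhibitors of Mycobacterium tuberculosis growth, labelled Cornell in the record; the read-out is not stated. The concentration is filed as 10 mM, unlikely as a test dose, so the dose is not known. The record gives no direction; compounds strong in two other growth screens of this library score well above the rest, so higher reads as stronger inhibition. Of about 53,000 compounds tested this way, about 900 (1.7%) reached 50% or more in at least one test.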

SMILES: [H][C@]12CC[C@]([H])(CN(C(=O)c3cccnc3)C1)N(Cc1cccc(Cl)c1F)C2
percent effect: 1.454

SMILES: O=C(CCc1ccncc1)N1CCc2c(ncnc2N2CCOCC2)C1
percent effect: -29.03

SMILES: COc1cccn(CC(=O)N(C)CCOc2cc(C)cc(C)c2)c1=O
percent effect: 40.17

SMILES: Cc1cccc2[nH]c(C3CCN(C(=O)c4ccc[nH]4)CC3)nc12
percent effect: 10.68

SMILES: COCC(=O)NCc1cc(=O)n2c(n1)CN(C)CCC2.O=C(O)C(F)(F)F
percent effect: 5.76

SMILES: c1coc(CNc2nnc(Cc3ccsc3)o2)c1
percent effect: 17.42

SMILES: O=C(O)C(F)(F)F.[H][C@@]12CCN(Cc3c(C)noc3C)C[C@]1(C(=O)NCC1CC1)CCO2
percent effect: 17.76

SMILES: CC(C)c1cnc(CN2CCCS2(=O)=O)o1
percent effect: -43.92

SMILES: Cc1nc(CNC(C(=O)N2CCOCC2)C(C)C)oc1C (centres unmarked)
percent effect: 13.43

SMILES: CCN(Cc1cn(C)nc1-c1ccc2c(c1)OCCO2)CC1CCCO1 (centres unmarked)
percent effect: -10.17

SMILES: O=C(c1ccc(N2CCCC2)nn1)N1CCCc2cc(F)c(F)cc21
percent effect: 18.59

SMILES: O=C(O)C(F)(F)F.[H][C@]12CCN(C(=O)c3ccco3)[C@@]1([H])CC[C@H](COCCN1CCCC1)O2
percent effect: 3.119

SMILES: Cc1ccc(C(=O)NCC2COCCO2)c(=O)[nH]1 (centres unmarked)
percent effect: 6.45

SMILES: O=C(c1cc(C2CC2)on1)N1CC[C@]2(C[C@H](Oc3cccnc3)CO2)C1
percent effect: 10.92

SMILES: Cc1ccc(-c2nc(CCNC(=O)C3CC(=O)N(C)C3)cs2)cc1 (centres unmarked)
percent effect: 14.27

SMILES: O=C(O)C(F)(F)F.O=C1CCCN1Cc1nnc2n1CCCN(Cc1ccco1)C2
percent effect: 1.295

SMILES: CS(=O)(=O)Nc1cccc(CNC(=O)c2cccs2)c1
percent effect: -11.67

SMILES: COCCNC(=O)Cn1c(-c2cccc(Cl)c2)nc(C)c(CCO)c1=O
percent effect: -10.87

SMILES: COCCNc1nc(-c2ccc(S(=O)(=O)N3CCCCC3)cc2)cs1
percent effect: 33.07

SMILES: O=C(O)c1ccccc1-n1cnc(CN2CCCCCC2)c1
percent effect: 10.63

SMILES: COc1ncccc1C(=O)N1CCC(c2nnc(C3CC3)o2)CC1
percent effect: -3.854

SMILES: Cc1csc(C2(NCC(O)COc3ccc(F)cc3)CCC2)n1 (centres unmarked)
percent effect: -9.335

SMILES: CCOc1cc(NC(=O)N(C)Cc2ncnn2C)ccc1C
percent effect: -17.7

SMILES: CC(=O)OCC1CCCCN1C(=O)c1ccc(Cn2ccnc2)o1 (centres unmarked)
percent effect: 28.76

SMILES: COCc1noc(C2(c3ccc(Cl)cc3)CCOCC2)n1
percent effect: 26.43

SMILES: Cc1cccc2cc(CN3CCC(N4CCOCC4)CC3)c(=O)[nH]c12
percent effect: 5.31

SMILES: CCc1cc(C(=O)NCC2CCN(Cc3ccncc3)CC2)on1
percent effect: 7.355

SMILES: O=C(Nc1cc(C(F)(F)F)c[nH]c1=O)c1ccco1
percent effect: 23.59

SMILES: CCCNC(=O)c1cccc2ncccc12
percent effect: -68.49

SMILES: CCC[C@H]1CN(CCS(C)(=O)=O)C[C@@H]1NC(=O)c1ccccc1F
percent effect: -14.37

SMILES: Cc1cc(C2CCCN2C(=O)CN2C(=O)OC(C)(C)C2=O)on1 (centres unmarked)
percent effect: -3.863

SMILES: COc1ccc(C(=O)NCC(=O)N(Cc2ccsc2)C2CC2)cc1OC
percent effect: -7.517

SMILES: CCC(N)C(=O)N1CCC(OCc2ccc(Cl)c(Cl)c2)CC1.Cl (centres unmarked)
percent effect: 17.48

SMILES: Cc1nn(C(C)(C)C)c(=O)n1CC(=O)NC(C)(C)C
percent effect: -49.58

SMILES: COc1nn(C)c2c1CCCN(C(=O)c1ccc(C)c(F)c1)C2
percent effect: -6.567

SMILES: Cc1cccnc1CNC(=O)CC1C(=O)NCCN1CC(C)(C)C (centres unmarked)
percent effect: -6.52

SMILES: CSc1ccc(NCc2csc(C)n2)cc1F
percent effect: 17.82

SMILES: CCC[C@H]1CN(CCS(C)(=O)=O)C[C@@H]1NC(=O)c1ccccn1
percent effect: 16.09

SMILES: Cc1nc(N2CCC3(CCCN(CC4CC4)C3=O)C2)c2sccc2n1 (centres unmarked)
percent effect: 6.165

SMILES: CCc1noc(C)c1C(=O)N1CCCC1Cn1cccn1 (centres unmarked)
percent effect: -9.329

SMILES: NC(=O)CS(=O)(=O)Cc1ccc(OCc2ccc(F)cc2)cc1
percent effect: 35.43

SMILES: Cn1cc(C(=O)N2CCCN(C3Cc4ccccc4C3)CC2)cn1
percent effect: 21.02

SMILES: O=C(O)C(F)(F)F.O=C(O)C(F)(F)F.[H][C@]12CCN(c3ncc(C)cn3)C[C@@]1([H])OCCN(Cc1ccncc1)C2
percent effect: 8.3

SMILES: O=C(O)[C@H]1CN(Cc2ccccc2)C[C@@H]1C(=O)c1ccccc1
percent effect: 51.09

SMILES: COc1ccc(OC)c(CN(C(=O)c2ccc(C)[nH]c2=O)C2CC2)c1
percent effect: -3.256

SMILES: O=C(CN(Cc1cccnc1)CC1CCCO1)Nc1ccc(F)cc1 (centres unmarked)
percent effect: 2.587

SMILES: O=C(Nc1ccccn1)c1csc(NC2CCCC2)n1
percent effect: 105.8

SMILES: Cc1ccc(S(=O)(=O)NC(=O)c2c(C)noc2C(C)C)cc1C
percent effect: 26.09

SMILES: O=C(CC1CC1)N1CCC2(CC1)CC(Oc1ccccc1)CO2 (centres unmarked)
percent effect: 10.42

SMILES: CCN1CCN(CCC(=O)NC2CC(c3cccc(Cl)c3)C2)CC1 (centres unmarked)
percent effect: -50.9

Some entries from above, unchanged:

SMILES,percent effect
COCCNc1nc(-c2ccc(S(=O)(=O)N3CCCCC3)cc2)cs1,33.07
CSc1ccc(NCc2csc(C)n2)cc1F,17.82
CCN(Cc1cn(C)nc1-c1ccc2c(c1)OCCO2)CC1CCCO1 (centres unmarked),-10.17
CCOc1cc(NC(=O)N(C)Cc2ncnn2C)ccc1C,-17.7
O=C(CN(Cc1cccnc1)CC1CCCO1)Nc1ccc(F)cc1 (centres unmarked),2.587
O=C(c1cc(C2CC2)on1)N1CC[C@]2(C[C@H](Oc3cccnc3)CO2)C1,10.92